Drawing on publication doi:10.1101/2025.10.30.685510, this text covers binding for three substances.

Chains of the proteins cited; added tags and fusions are not shown.
UniProt Q2G184: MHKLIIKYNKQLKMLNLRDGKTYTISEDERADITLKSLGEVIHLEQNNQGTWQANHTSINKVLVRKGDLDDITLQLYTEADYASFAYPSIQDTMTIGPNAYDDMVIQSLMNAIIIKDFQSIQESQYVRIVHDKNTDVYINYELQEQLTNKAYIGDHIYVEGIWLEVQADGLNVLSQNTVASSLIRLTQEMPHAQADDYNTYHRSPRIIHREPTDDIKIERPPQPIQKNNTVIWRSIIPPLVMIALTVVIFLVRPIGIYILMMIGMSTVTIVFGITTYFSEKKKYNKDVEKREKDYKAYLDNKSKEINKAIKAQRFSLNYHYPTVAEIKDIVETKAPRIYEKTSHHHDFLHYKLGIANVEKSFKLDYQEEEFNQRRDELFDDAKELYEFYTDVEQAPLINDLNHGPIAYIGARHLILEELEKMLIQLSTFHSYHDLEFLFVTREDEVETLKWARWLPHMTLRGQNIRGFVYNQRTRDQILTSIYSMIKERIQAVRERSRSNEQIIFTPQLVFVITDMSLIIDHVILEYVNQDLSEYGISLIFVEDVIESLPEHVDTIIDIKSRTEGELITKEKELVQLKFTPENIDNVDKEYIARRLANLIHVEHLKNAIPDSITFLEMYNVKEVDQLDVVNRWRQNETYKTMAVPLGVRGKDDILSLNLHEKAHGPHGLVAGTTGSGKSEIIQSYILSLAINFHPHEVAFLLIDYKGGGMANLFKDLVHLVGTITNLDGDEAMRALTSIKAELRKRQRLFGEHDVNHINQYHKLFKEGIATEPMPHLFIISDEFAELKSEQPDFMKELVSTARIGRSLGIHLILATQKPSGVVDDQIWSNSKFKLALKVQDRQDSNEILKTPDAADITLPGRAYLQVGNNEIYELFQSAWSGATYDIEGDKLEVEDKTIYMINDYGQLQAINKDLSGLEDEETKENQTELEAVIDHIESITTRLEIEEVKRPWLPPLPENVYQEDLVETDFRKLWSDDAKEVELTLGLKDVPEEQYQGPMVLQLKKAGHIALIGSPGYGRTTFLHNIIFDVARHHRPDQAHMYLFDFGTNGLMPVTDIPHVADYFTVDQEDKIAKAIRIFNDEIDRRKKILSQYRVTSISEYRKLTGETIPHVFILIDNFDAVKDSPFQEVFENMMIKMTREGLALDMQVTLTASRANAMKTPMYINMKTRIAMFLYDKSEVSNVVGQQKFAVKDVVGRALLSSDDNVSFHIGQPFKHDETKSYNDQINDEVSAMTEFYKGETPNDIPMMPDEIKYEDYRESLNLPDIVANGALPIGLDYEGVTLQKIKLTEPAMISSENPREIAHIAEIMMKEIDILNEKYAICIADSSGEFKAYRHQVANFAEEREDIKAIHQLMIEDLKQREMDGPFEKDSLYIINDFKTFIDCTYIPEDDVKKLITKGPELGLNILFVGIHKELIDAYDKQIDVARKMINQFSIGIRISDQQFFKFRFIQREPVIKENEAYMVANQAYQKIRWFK
UniProt Q2G188: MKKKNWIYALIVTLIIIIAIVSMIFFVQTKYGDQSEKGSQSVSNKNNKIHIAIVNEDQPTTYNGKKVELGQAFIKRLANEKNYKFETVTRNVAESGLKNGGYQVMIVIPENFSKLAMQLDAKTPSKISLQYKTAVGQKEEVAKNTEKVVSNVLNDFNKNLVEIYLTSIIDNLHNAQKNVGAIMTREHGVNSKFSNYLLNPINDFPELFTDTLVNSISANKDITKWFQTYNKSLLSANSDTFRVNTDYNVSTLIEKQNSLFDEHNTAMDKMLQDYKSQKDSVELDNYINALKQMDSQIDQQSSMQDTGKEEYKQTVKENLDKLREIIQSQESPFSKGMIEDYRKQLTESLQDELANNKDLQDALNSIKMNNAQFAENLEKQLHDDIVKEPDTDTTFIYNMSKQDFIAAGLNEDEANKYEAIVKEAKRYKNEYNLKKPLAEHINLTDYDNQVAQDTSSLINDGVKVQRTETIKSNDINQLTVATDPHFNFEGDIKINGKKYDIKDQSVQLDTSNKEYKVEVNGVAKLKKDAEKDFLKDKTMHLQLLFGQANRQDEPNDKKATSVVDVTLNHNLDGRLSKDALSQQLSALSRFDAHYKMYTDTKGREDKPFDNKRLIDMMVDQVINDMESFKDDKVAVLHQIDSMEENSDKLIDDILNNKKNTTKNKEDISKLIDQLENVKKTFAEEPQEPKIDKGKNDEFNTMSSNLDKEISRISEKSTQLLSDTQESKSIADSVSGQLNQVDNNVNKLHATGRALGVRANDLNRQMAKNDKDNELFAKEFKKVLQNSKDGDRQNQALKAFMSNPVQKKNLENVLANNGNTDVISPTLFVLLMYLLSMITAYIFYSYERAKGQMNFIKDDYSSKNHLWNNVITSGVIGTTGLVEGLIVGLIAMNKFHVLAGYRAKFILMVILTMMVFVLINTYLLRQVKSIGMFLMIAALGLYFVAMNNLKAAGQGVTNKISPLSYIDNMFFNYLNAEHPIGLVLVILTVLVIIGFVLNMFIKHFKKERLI
UniProt Q2G185: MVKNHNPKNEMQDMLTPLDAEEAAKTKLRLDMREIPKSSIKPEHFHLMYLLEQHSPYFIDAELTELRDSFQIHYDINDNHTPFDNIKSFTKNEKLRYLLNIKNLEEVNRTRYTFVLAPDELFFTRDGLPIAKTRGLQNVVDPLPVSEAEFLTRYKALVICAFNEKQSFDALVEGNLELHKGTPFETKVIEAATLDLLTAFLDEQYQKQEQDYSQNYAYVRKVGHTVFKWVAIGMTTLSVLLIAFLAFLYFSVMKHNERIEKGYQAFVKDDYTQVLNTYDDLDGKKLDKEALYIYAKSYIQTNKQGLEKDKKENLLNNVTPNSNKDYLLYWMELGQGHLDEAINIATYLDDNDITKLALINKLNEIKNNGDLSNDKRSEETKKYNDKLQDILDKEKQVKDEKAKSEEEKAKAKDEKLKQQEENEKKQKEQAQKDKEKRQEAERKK
UniProt Q2G189: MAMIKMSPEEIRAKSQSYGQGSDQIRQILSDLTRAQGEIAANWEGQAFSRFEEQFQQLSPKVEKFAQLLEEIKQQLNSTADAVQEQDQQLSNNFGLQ

In this assay the target is EssC with a C-terminal Twin-Strep tag (Staphylococcus aureus) (UniProt Q2G184). Put plainly: pull-down.

Results are given in words; binding and its absence hold for the method and conditions named. In cells and extracts the contact can be indirect. Some results given as binding are weak or reduced against the parent protein; the word gives no strength.

Turning to EsaA (from UniProt Q2G188 1-1009), the binding result was “binds”.
For EssB (from UniProt Q2G185 1-444), the binding entry is given as “binds”.
As for EsxA (from UniProt Q2G189 1-97), the entry is “binds”.
